Results: PMC11998537
These are yes or no findings as the source states them, for the method shown. Binding seen in cells or lysates may run through a third protein. Some entries that bind do so weakly or less than the wild type. For some of these results: Tags and fused reporters may be left off the sequences shown.

The chains behind the UniProt entries cited, without tags or fusion partners.
UniProt Q13619: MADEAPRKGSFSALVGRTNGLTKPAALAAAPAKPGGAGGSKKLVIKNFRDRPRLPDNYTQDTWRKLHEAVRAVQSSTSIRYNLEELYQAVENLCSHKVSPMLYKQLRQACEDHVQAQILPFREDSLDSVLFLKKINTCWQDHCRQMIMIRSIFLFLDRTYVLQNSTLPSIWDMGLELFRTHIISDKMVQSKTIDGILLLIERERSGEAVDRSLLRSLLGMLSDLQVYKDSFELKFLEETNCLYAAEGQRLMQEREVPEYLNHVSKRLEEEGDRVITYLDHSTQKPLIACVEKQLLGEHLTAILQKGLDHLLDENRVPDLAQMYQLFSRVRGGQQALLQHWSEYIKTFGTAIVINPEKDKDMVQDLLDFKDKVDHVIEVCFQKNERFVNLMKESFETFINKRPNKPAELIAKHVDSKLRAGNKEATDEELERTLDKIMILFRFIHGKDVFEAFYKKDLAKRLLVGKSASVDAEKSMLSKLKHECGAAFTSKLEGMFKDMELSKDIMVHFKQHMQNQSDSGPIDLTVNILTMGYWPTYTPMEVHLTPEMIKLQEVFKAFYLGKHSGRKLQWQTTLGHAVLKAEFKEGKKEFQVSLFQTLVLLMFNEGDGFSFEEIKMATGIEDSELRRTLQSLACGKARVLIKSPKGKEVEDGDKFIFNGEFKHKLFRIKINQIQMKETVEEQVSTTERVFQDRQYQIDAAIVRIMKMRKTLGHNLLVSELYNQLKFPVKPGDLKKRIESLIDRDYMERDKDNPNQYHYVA
UniProt Q13620: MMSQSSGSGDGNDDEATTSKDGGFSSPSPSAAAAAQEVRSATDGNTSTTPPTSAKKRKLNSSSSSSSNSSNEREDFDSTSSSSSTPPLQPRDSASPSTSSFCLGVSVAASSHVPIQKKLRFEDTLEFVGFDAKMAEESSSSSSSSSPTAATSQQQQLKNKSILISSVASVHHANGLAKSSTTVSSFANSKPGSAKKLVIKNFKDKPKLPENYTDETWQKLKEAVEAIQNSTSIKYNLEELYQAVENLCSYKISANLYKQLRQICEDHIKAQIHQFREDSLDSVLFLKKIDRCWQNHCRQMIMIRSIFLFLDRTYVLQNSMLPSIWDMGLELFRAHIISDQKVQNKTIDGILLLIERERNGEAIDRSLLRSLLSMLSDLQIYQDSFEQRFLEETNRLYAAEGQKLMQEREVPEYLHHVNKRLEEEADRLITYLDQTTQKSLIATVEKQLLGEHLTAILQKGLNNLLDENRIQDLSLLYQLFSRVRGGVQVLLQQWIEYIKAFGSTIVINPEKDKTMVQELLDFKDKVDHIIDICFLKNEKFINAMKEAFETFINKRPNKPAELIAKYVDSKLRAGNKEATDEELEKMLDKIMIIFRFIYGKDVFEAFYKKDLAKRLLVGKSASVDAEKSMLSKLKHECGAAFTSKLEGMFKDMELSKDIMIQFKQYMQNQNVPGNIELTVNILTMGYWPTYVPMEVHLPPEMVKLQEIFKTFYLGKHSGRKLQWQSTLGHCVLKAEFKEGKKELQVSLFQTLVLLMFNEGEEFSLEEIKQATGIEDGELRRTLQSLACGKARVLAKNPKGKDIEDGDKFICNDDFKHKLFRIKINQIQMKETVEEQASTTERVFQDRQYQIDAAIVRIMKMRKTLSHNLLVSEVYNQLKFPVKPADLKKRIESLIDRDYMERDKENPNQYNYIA
UniProt Q16531: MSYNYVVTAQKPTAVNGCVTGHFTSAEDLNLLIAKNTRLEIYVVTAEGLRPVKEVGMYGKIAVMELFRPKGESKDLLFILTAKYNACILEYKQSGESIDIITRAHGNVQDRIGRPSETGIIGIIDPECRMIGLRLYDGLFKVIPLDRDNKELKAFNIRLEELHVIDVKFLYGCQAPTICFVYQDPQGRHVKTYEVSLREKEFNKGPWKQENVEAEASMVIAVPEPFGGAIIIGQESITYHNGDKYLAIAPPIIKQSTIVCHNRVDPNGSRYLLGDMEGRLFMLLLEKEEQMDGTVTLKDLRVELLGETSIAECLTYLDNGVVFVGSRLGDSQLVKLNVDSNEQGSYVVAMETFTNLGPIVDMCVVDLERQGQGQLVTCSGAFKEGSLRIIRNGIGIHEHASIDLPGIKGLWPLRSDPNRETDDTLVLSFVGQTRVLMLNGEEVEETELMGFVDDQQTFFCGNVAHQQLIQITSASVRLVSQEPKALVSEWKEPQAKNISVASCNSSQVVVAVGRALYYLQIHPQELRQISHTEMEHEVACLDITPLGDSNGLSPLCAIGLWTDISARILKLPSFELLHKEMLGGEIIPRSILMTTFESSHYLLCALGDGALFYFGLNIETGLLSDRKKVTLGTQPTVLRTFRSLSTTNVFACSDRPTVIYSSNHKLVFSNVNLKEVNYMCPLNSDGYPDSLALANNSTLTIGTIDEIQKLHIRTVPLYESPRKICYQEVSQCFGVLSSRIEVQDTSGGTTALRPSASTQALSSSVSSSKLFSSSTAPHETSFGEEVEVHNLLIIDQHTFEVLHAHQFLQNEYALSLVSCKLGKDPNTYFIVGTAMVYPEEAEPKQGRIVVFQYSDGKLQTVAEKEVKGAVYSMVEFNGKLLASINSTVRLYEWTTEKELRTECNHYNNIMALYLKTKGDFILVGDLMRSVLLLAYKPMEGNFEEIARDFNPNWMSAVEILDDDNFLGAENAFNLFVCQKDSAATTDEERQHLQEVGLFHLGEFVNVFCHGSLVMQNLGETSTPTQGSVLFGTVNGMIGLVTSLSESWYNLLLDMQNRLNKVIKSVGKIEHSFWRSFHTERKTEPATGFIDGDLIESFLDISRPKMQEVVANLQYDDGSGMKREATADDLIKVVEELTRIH
UniProt P03431: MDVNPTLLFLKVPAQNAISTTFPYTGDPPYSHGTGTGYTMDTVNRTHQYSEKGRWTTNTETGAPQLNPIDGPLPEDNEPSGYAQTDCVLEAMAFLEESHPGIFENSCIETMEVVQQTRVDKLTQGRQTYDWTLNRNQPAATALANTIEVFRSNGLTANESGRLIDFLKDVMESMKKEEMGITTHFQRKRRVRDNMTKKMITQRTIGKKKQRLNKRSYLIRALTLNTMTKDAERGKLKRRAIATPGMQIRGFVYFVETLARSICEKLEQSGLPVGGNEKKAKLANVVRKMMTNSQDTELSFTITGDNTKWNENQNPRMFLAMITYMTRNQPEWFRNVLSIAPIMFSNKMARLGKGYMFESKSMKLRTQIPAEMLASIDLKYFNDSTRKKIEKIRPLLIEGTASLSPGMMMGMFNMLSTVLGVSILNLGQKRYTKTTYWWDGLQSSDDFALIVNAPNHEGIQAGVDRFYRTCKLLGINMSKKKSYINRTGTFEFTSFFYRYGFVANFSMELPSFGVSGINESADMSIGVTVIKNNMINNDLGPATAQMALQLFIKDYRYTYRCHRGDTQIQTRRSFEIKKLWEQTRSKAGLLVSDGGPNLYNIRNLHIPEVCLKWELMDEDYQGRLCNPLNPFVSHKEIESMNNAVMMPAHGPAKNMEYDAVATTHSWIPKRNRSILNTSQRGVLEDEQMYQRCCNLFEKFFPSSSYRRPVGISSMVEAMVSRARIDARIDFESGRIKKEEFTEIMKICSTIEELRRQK

What was measured:
[1] = target: T1, DCAF7 as transfected for Fig. 8A and B (human) (UniProt P61962); test: co-IP; HEK293T transfected with the indicated plasmids for 48 h, lysed and immunoprecipitated with anti-Flag antibody; immunoblotting (Fig. 8A and B)
T1 sequence: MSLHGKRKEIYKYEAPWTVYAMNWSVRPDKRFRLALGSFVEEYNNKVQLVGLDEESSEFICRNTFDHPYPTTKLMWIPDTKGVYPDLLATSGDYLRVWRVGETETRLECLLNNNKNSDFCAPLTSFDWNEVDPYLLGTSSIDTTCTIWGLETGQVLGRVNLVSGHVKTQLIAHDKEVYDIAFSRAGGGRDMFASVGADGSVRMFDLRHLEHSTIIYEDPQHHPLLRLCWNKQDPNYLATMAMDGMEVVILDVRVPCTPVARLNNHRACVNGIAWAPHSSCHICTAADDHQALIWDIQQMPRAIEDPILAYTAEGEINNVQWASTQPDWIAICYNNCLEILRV

[2] = target: T2, Flag-tagged DCAF7, stably expressed in HEK293T (293T-DCAF7 cells) (human) (UniProt P61962); test: co-IP
T2 sequence: T1 sequence

binding [1]	Substance	binding [2]
binds	CUL4A (from UniProt Q13619 1-759)	
binds	HA-CUL4B (from UniProt Q13620 1-913)	
binds	Myc-DDB1 (DNA damage-binding protein-1) (from UniProt Q16531 1-1140)	
	PB1 made during H1N1 infection (from UniProt P03431 1-757)	binds
